# In the supplement of paper PMC4604168 (melanoma cell lines):
# This is one part of the list. Repeats are few or missing, and single values can be far off.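 Cells were imaged in 1,536-well plates, and nuclei stained with an antibody against cleaved PARP were counted against all DNA-stained nuclei to give the apoptosis fraction. Screening doses were chosen to leave most cells alive, and resting and induced cleaved-PARP levels differ strongly between cell lines.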
# Tests used:
# Experiment in all cases: cleaved PARP positive nuclei fraction relative to DMSO control; melanoma cells; higher = more apoptosis
# Conditions in all cases: library dose: low library concentration; 72 h
# [1] = system: WM115
# [2] = system: WM1716
# [3] = system: WM1745
# [4] = system: WM3526
# [5] = system: WM3619
# [6] = system: WM451Lu
SMILES,cleaved PARP positive nuclei fraction [1] [%],cleaved PARP positive nuclei fraction [2] [%],cleaved PARP positive nuclei fraction [3] [%],cleaved PARP positive nuclei fraction [4] [%],cleaved PARP positive nuclei fraction [5] [%],cleaved PARP positive nuclei fraction [6] [%]
"Cc1cc(Nc2cc(N3CCN(C)CC3)nc(Sc3ccc(NC(=O)C4CC4)cc3)n2)n[nH]1 [Tozasertib] + NC(=O)Nc1cc(-c2cccc(F)c2)sc1C(=O)N[C@H]1CCCNC1 [AZD7762] (first compound 0.006 µM, partner dose 0.02 µM)",184,315,101,83.8,206,208
"O=c1[nH]nc(Sc2ncc([N+](=O)[O-])s2)n1-c1ccc2c(c1)OCCO2 + NC(=O)c1ccc(N(C(N)=O)c2c(F)cccc2F)nc1-c1ccc(F)cc1F [VX702] (first compound 0.2 µM, partner dose 0.4 µM)",81.8,30.3,107,67.4,71.7,49.1
"Cc1cc(Nc2cc(N3CCN(C)CC3)nc(Sc3ccc(NC(=O)C4CC4)cc3)n2)n[nH]1 [Tozasertib] + Nc1cccc2c1CN(C1CCC(=O)NC1=O)C2=O [lenalidomide] (first compound 0.006 µM, partner dose 1 µM)",204,99.2,114,87.9,94,84.6
"Cc1cn(-c2cc(NC(=O)c3ccc(C)c(Nc4nccc(-c5cccnc5)n4)c3)cc(C(F)(F)F)c2)cn1 [nilotinib] + Cn1cc(/C=C2\C(=O)Nc3cccnc32)c2ccccc21 [GW441756] (first compound 0.2 µM, partner dose 0.4 µM)",87.5,79.2,91.4,219,105,82.2
"N#CC[C@H](C1CCCC1)n1cc(-c2ncnc3[nH]ccc23)cn1 [ruxolitinib] + Cn1nnc2c(C(N)=O)ncn2c1=O [temozolomide] (first compound 1 µM, partner dose 2 µM)",131,75.9,102,40,85,28.1
"Cc1ccc(Nc2nccc(N(C)c3ccc4c(C)n(C)nc4c3)n2)cc1S(N)(=O)=O [Pazopanib] + OCCn1cc(-c2cnc3nnn(Cc4ccc5ncccc5c4)c3n2)cn1 [PF04217903] (first compound 0.4 µM, partner dose 1 µM)",183,161,186,58.9,81.2,264
"Cc1cn(-c2cc(NC(=O)c3ccc(C)c(Nc4nccc(-c5cccnc5)n4)c3)cc(C(F)(F)F)c2)cn1 [nilotinib] + O=C(Nc1ccccc1)c1cc([N+](=O)[O-])ccc1Cl [GW9662] (first compound 0.2 µM, partner dose 2 µM)",72.4,102,230,71.8,93.2,30.4
"O=c1[nH]nc(Sc2ncc([N+](=O)[O-])s2)n1-c1ccc2c(c1)OCCO2 + CN(C)S(=O)(=O)c1ccc2c(c1)/C(=C/c1cc3c([nH]1)CCCC3)C(=O)N2 [SU6656] (first compound 0.2 µM, partner dose 0.4 µM)",233,33.6,97.5,65.6,103,62.5
"O=C(/C=C/c1cccnc1)NCCCCC1CCN(C(=O)c2ccccc2)CC1 + C#Cc1cccc(Nc2ncnc3cc(OCCOC)c(OCCOC)cc23)c1 [erlotinib] (first compound 0.01 µM, partner dose 0.8 µM)",56.3,489,122,76,95.9,84.5
"COc1cc([C@@H]2c3cc4c(cc3[C@@H](O[C@@H]3O[C@@H]5CO[C@@H](C)O[C@H]5[C@H](O)[C@H]3O)[C@H]3COC(=O)[C@H]23)OCO4)cc(OC)c1O [etoposide] + Cn1cc(/C=C2\C(=O)Nc3cccnc32)c2ccccc21 [GW441756] (first compound 0.02 µM, partner dose 0.4 µM)",102,119,87.2,60.6,104,35.7
"Cc1ccc(Nc2nccc(N(C)c3ccc4c(C)n(C)nc4c3)n2)cc1S(N)(=O)=O [Pazopanib] + O=C(O)C(=O)Nc1sc2c(c1C(=O)O)CCNC2 [TCS401] (first compound 0.4 µM, partner dose 1.66667 µM)",46.5,55.3,106,144,99.4,72.2
"CC[C@]1(O)C[C@H]2CN(CCc3c([nH]c4ccccc34)[C@@](C(=O)OC)(c3cc4c(cc3OC)N(C=O)[C@H]3[C@@](O)(C(=O)OC)[C@H](OC(C)=O)[C@]5(CC)C=CCN6CC[C@]43[C@@H]65)C2)C1 [vincristine] + CC(=O)c1c(C)c2cnc(Nc3ccc(N4CCNCC4)cn3)nc2n(C2CCCC2)c1=O [palbociclib] (first compound 0.0001 µM, partner dose 0.04 µM)",335,208,148,99.1,172,108

# Laid out differently: results already given.
SMILES | cleaved PARP positive nuclei fraction [1] [%] | cleaved PARP positive nuclei fraction [2] [%] | cleaved PARP positive nuclei fraction [3] [%] | cleaved PARP positive nuclei fraction [4] [%] | cleaved PARP positive nuclei fraction [5] [%] | cleaved PARP positive nuclei fraction [6] [%]
O=c1[nH]nc(Sc2ncc([N+](=O)[O-])s2)n1-c1ccc2c(c1)OCCO2 + CN(C)S(=O)(=O)c1ccc2c(c1)/C(=C/c1cc3c([nH]1)CCCC3)C(=O)N2 [SU6656] (first compound 0.2 µM, partner dose 0.4 µM) | 233 | 33.6 | 97.5 | 65.6 | 103 | 62.5
O=C(/C=C/c1cccnc1)NCCCCC1CCN(C(=O)c2ccccc2)CC1 + C#Cc1cccc(Nc2ncnc3cc(OCCOC)c(OCCOC)cc23)c1 [erlotinib] (first compound 0.01 µM, partner dose 0.8 µM) | 56.3 | 489 | 122 | 76 | 95.9 | 84.5
COc1cc([C@@H]2c3cc4c(cc3[C@@H](O[C@@H]3O[C@@H]5CO[C@@H](C)O[C@H]5[C@H](O)[C@H]3O)[C@H]3COC(=O)[C@H]23)OCO4)cc(OC)c1O [etoposide] + Cn1cc(/C=C2\C(=O)Nc3cccnc32)c2ccccc21 [GW441756] (first compound 0.02 µM, partner dose 0.4 µM) | 102 | 119 | 87.2 | 60.6 | 104 | 35.7
